Experimental data as given in the supplement of paper PMC7877785.
± gives the uncertainty stated by the source. Many of these values have a large error.

Assay: self-splicing fitness, log relative to wild type (ln ratio); higher = more splicing; Tetrahymena group I intron in knt gene, E. coli kanamycin selection, DiMSum; sequences stand for … in CUCUCU…GGAGGGAAAAGUUAUCAGGCAUGCACCUGGUAGCUAGUCUUUAAACCAAUAGAUUGCAUCGGUUUAAAAGGCAAGACCGUCAAAUUGCGGGAAAGGGGUCAACAGCCGUUCAGUACCAAGUCUCAGGGGAAACUUUGAGAUGGCCUUGCAAAGGGUAUGGUAAUAAGCUGACGGACAUGGUCCUAACCACGCAGCCAAGUCCUAAGUCAACAGAUCUUCUGUUGAUAUGGAUGCAGUUCACAGACUAAAUGUCGGUCGGGGAAGAUGUAUUCUUCUCAUAAGAUAUAGUCGGACCUCUCCUUAAUGGGAGCUAGCGGAUGAAGUGAUGCAACACUGGAGCCGCUGGGAACUAAUUUGUAUGCGAAAGUAUAUUGAUUAGUUUUGGAGUACUCGUGGUCG
Method in brief: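 Six replicate transformations of E. coli BL21(DE3) with a pET-22b(+) library were grown overnight at 37°C or 30°C. The library randomised all eight P1ex-region intron nucleotides, the intron lying in the knt kanamycin-resistance gene, and plates were LB agar with or without 25 μg/mL kanamycin plus 100 μg/mL carbenicillin, 50 μM IPTG and 0.2% rhamnose. Pooled colonies were amplicon-sequenced on an Illumina HiSeq 2500, and fitness is the DiMSum error-weighted combination of wild-type-normalised replicate fold changes, kanamycin versus none.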

Sequence	self-splicing fitness (ln) (30 °C)	self-splicing fitness (ln) (37 °C)
AGAUAGCAAUAUUACGCCUC	-3.23 ± 0.26	-2.26 ± 0.29
AGCAAGCAAUAUUACGAGCC	–	-1.31 ± 0.56
CGUUAGCAAUAUUACGCCAA	–	-2.01 ± 0.51
AUCCAGCAAUAUUACGACCA	-0.725 ± 0.15	-0.224 ± 0.17
GUCGAGCAAUAUUACGAACC	-1.87 ± 0.52	-0.304 ± 0.93
UCGGAGCAAUAUUACGUCGC	–	-2.4 ± 0.77
AGGGAGCAAUAUUACGAGUC	–	-2.38 ± 0.51
GUUUAGCAAUAUUACGAUUG	-1.55 ± 0.76	-1.65 ± 0.66
CUGUAGCAAUAUUACGCCCU	-2.42 ± 1.2	0.000402 ± 1.2
GUUGAGCAAUAUUACGCACG	–	-1.54 ± 0.66
CCAGAGCAAUAUUACGCCAA	-2.7 ± 0.51	–
UCGCAGCAAUAUUACGAAAG	-3.99 ± 0.6	–
GGACAGCAAUAUUACGCUAC	-4.74 ± 0.27	-2.33 ± 0.24
GUAGAGCAAUAUUACGGAGG	-3.36 ± 0.64	–
CUUCAGCAAUAUUACGCAAC	–	-3.38 ± 0.6
GUGAAGCAAUAUUACGAGGA	-3.03 ± 0.54	–
CGUCAGCAAUAUUACGAUGC	-4.73 ± 0.59	-3.36 ± 0.6
AUCAAGCAAUAUUACGCUUC	-3.3 ± 0.66	–
CAUGAGCAAUAUUACGCGUC	-4.06 ± 0.59	–
GCCGAGCAAUAUUACGAAUA	-2.87 ± 1.1	–
CGAAAGCAAUAUUACGAGGU	-4.7 ± 0.58	–
GAUGAGCAAUAUUACGGGUC	-3.5 ± 1	-3.19 ± 0.52
AGAUAGCAAUAUUACGAAGA	-1.93 ± 1.2	–
UCGAAGCAAUAUUACGCGUC	-3.59 ± 0.74	-0.484 ± 0.32
CCCUAGCAAUAUUACGCUCC	-4.64 ± 0.71	–

Sequence	self-splicing fitness (ln) (30 °C)	self-splicing fitness (ln) (37 °C)
CAAUAGCAAUAUUACGUGAG	-0.424 ± 0.076	0.678 ± 0.11
GCCCAGCAAUAUUACGCUGC	-4.66 ± 1	–
UCUAAGCAAUAUUACGCAGA	-3.98 ± 0.52	–
UAGUAGCAAUAUUACGCGGU	-3.86 ± 0.72	-3.31 ± 0.52
AACCAGCAAUAUUACGCCCG	-0.353 ± 0.1	-0.271 ± 0.17
UUCGAGCAAUAUUACGUGGC	–	-1.98 ± 0.64
UCACAGCAAUAUUACGCAAC	-3.65 ± 0.6	–
AUUGAGCAAUAUUACGUGCC	–	-1.2 ± 0.52
GAAUAGCAAUAUUACGAGAC	-3.73 ± 0.74	-0.147 ± 0.18
CGAGAGCAAUAUUACGGCUU	-2.94 ± 0.5	–
UAUAAGCAAUAUUACGCCGC	-1.83 ± 0.54	-3.2 ± 0.73
CUAGAGCAAUAUUACGUCCC	-2.82 ± 0.64	–
CCUGAGCAAUAUUACGCGCC	–	-0.73 ± 0.87
UCCGAGCAAUAUUACGAAGU	-4.44 ± 1	–
UGAGAGCAAUAUUACGCUCG	-2.25 ± 1.1	–
CUUAAGCAAUAUUACGAUAA	-4.53 ± 0.59	–
UUGGAGCAAUAUUACGAGAA	-1.61 ± 0.76	-1.78 ± 0.44
CCUGAGCAAUAUUACGAGUC	-3.31 ± 0.52	–
CAUUAGCAAUAUUACGCAAU	-4.45 ± 0.74	–
GUCGAGCAAUAUUACGCCCA	-1.4 ± 1.2	–
UGGAAGCAAUAUUACGAUUA	-1.1 ± 0.11	0.012 ± 0.12
UAGAAGCAAUAUUACGCCAC	-3.52 ± 0.54	–
GGUAAGCAAUAUUACGGCCC	-3.21 ± 0.54	-0.778 ± 1
CUGCAGCAAUAUUACGCUCU	-3.52 ± 0.41	-2.27 ± 0.25

Record cards, from the list above. Order of values: self-splicing fitness (ln) (30 °C)	self-splicing fitness (ln) (37 °C)
GCCCAGCAAUAUUACGCUGC as listed: -4.66 ± 1	–
CAUUAGCAAUAUUACGCAAU as listed: -4.45 ± 0.74	–
UGGAAGCAAUAUUACGAUUA as listed: -1.1 ± 0.11	0.012 ± 0.12
